No constants are given. Whether binding was seen depends on the method and setting. In cells and extracts the contact can be indirect. Some results given as binding are weak or reduced against the parent protein; the word gives no strength.
molecular target: autophagy adaptor protein p62/SQSTM1 (sequestosome-1) (human (endogenous in HeLa)) (UniProt Q13501); test: co-IP

By UniProt entry, the sequences of proteins in these tests, tags left out.
UniProt P03107: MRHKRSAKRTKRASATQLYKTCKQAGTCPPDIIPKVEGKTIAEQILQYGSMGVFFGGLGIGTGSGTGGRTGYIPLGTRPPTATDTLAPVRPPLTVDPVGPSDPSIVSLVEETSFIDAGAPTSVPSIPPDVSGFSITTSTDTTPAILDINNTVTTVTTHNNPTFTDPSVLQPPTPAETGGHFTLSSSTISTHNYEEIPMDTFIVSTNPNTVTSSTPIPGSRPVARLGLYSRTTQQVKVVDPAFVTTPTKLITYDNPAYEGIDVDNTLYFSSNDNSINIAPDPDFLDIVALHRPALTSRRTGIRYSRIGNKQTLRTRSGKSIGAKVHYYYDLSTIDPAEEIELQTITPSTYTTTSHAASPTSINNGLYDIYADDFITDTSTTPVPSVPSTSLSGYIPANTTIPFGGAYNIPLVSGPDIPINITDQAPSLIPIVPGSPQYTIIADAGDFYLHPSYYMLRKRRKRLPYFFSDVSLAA
UniProt P03101: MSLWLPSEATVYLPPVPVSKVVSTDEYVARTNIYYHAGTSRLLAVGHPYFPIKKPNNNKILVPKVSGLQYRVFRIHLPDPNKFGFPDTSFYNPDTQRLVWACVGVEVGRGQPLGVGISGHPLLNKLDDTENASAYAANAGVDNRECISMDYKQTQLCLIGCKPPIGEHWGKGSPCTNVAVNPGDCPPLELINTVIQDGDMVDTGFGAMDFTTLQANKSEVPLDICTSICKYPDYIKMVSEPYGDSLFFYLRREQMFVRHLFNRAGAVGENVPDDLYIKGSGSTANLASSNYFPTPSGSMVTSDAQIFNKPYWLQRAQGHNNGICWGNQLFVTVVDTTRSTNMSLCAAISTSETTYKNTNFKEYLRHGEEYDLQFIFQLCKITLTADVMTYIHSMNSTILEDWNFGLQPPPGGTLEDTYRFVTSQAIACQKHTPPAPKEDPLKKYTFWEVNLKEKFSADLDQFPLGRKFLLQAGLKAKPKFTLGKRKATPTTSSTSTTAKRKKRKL

Substance	binding
HPV16 minor capsid protein L2 (of incoming HPV16 pseudoviruses) (from UniProt P03107 1-473)	binds
HPV16 minor capsid protein L2 (overexpressed in HeLa cells) (from UniProt P03107 1-473)	binds
HPV16 major capsid protein L1 (of incoming HPV16 pseudoviruses) (from UniProt P03101 1-505)	binds
